The list shows a part of the results, in another mix than the full data. Records with an inconclusive call do not appear. Activity calls are given as the source filed them. Calls come from the whole dose curve; as a rule, active = well fitted cell-killing curve with a large enough effect; inconclusive = small, poorly fitted or top-dose-only effect, or effect the other way; inactive = flat fitted curve, though single readings scatter.
Potency is the fitted concentration of half-maximal effect.

The nature of the experiment: GF-AFC viability counterscreen for inhibitors of alpha-synuclein gene (SNCA) expression. Note: nearly all actives have a fitted effect of over 30% in size. To be noted: HEK-293-SNCA-luc viability, GF-AFC fluorescence, 24 h. An excerpt:
Assay Submitter (PI): Daniel R. Scoles Ph.D.
Department of Neurology, University of Utah, Salt Lake City, Utah
Accumulation of alpha-synuclein is a main underlying pathological feature of Parkinson's disease (PD) and alpha-synucleinopathies, for which lowering expression of the alpha-synuclein gene (SNCA) is a potential therapeutic avenue. Using a cell-based luciferase reporter of SNCA expression we performed a quantitative high throughput screen (qHTS) of 155,885 compounds in dose response. The screening assay was generated using genome editing to insert the luciferase gene downstream and in frame of the SNCA gene in HEK-293 cells (1). A viability counterscreen using GF-AFC was used to eliminate cytotoxic and false positive compounds. […]
Described herein are the results of the GF-AFC viability counterscreen for SNCA inhibitors; inactivity (no decrease in fluorescence signal, not cytotoxic) is the desired output for this assay. […]
7; Detector; Fluorescence; Measure fluorescence with ViewLux microplate reader (PerkinElmer) equipped with 405/10 excitation and 540/25 emission filters. […]
10; Detector; Luminescence; Measure luminescence with ViewLux microplate reader (PerkinElmer) equipped with clear filters. […]
10; Signals were analyzed, and dose-response curves were fit using the Hill equation. […]
As for `COc1cc2nc(N3CCCC3)nc(NCCCCCN3CCCC3)c2cc1OC`, the Potency was active: 9.47 µM.

The record behind these values is PubChem BioAssay AID1671193 (National Center for Advancing Translational Sciences (NCATS), 2021).
